Experimental data from article PMC5500891.
Results are given in words; binding and its absence hold for the method and conditions named. Binding seen in cells or lysates may run through a third protein. Some entries that bind do so weakly or less than the wild type. For some of these results: Where a sequence is shown, tags or fusion partners need not be part of it.

Sequences of proteins named here, by UniProt entry; tags and fusion partners are left off.
UniProt Q8R0K9: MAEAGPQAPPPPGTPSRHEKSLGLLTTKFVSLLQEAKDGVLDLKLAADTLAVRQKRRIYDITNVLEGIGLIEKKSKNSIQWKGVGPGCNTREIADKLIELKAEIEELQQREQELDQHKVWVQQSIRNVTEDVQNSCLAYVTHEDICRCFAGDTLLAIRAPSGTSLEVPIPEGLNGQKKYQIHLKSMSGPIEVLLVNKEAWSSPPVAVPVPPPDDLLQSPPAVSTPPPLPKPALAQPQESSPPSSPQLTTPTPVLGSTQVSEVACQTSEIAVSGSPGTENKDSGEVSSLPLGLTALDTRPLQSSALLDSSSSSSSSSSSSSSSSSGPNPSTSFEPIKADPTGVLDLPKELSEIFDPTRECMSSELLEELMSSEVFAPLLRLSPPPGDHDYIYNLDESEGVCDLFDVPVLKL

B1: Deup1 (endogenous, mouse airway epithelial cells) (protein, UniProt Q7M6Y5 1-601)
chain: MENQAHTTAGASPCEAELQELMEQIDIMVSNKKLDWERKMRALETRLDLRDQELANAQTCLDQKGQEVGLLRQKLDSLEKCNLVMTQNYEGQLQTLKAQFSKLTSNFEKLRLHQMKQNQIHRKESSSKEELPFELSSLNQKLEEFRAKSREWDKQEVLYQTHLVSLDAQQKLLSEKCSQFQKQAQNYQTQLNGKKQCAEDSSSEIPRLVCESDPGCEATQRDEFIIEKLKSAVSEIALSRNKLQDENQKLLQELKMYQRQCQAMEAGLSEVKSELQSRDDLLRIIEMERLHLHRELLRMGEVQTAQDNRKRVESSYSPSPKEAERKRKELFPMVSDQPNHEKELSKMRSQLYQEEGLCSEQERLRSEISELTQELHQKEVTIATVMKKAALLERQLKIELEIKERMLAKQQVSDRRYKAVRTENTHLKGMMGDLDPARYLAVDLSNKKHSQCTSINKLEYENERLRSDLAKLHGNGKAAWPNQSSYGEAGAYVFQSQLKTETSGDRISQDCELNRSPTPLSPLPFQTKEMASPLVGDNEVLALSPPDISFRASLAAQHFLMEEERRAKELEKLLNTHIDELQRHTEFTLNKYTKLKQSRHI
B2: Flag-tagged Deup1 expressed in 293FT cells (protein, UniProt Q7M6Y5 1-601)
chain: B1 chain
B3: human SAS6 expressed in 293FT cells (protein, UniProt Q6UVJ0 1-657)
chain: MSQVLFHQLVPLQVKCKDCEERRVSIRMSIELQSVSNPVHRKDLVIRLTDDTDPFFLYNLVISEEDFQSLKFQQGLLVDFLAFPQKFIDLLQQCTQEHAKEIPRFLLQLVSPAAILDNSPAFLNVVETNPFKHLTHLSLKLLPGNDVEIKKFLAGCLKCSKEEKLSLMQSLDDATKQLDFTRKTLAEKKQELDKLRNEWASHTAALTNKHSQELTNEKEKALQAQVQYQQQHEQQKKDLEILHQQNIHQLQNRLSELEAANKDLTERKYKGDSTIRELKAKLSGVEEELQRTKQEVLSLRRENSTLDVECHEKEKHVNQLQTKVAVLEQEIKDKDQLVLRTKEAFDTIQEQKVVLEENGEKNQVQLGKLEATIKSLSAELLKANEIIKKLQGDLKTLMGKLKLKNTVTIQQEKLLAEKEEKLQKEQKELQDVGQSLRIKEQEVCKLQEQLEATVKKLEESKQLLKNNEKLITWLNKELNENQLVRKQDVLGPSTTPPAHSSSNTIRSGISPNLNVVDGRLTYPTCGIGYPVSSAFAFQNTFPHSISAKNTSHPGSGTKVQFNLQFTKPNASLGDVQSGATISMPCSTDKENGENVGLESKYLKKREDSIPLRGLSQNLFSNSDHQRDGTLGALHTSSKPTALPSASSAYFPGQLPNS

Legend:
[1] = target: E2f4 (endogenous, mouse airway epithelial cells) (mouse (endogenous in mTEC ALI cultures)) (UniProt Q8R0K9); assay: co-IP; endogenous proteins in mTEC ALI day 3 lysate (NP-40 lysis buffer, 250 mM KCl); precipitated with anti-E2F4 agarose beads, rabbit IgG beads as control, 1-2 h on ice; blot for Deup1
[2] = target: E2f4 (endogenous, mouse airway epithelial cells) (mouse (endogenous in mTEC ALI cultures)) (UniProt Q8R0K9); assay: proximity ligation; fixed ALI cultures from E2f4 f/f; R26 CreERT2/+ airway progenitors, anti-E2f4 and anti-Deup1 primary antibodies; tamoxifen-treated (E2f4-deficient) cultures as negative control
[3] = target: mouse E2f4 expressed from pcDNA in 293FT cells (mouse) (UniProt Q8R0K9); assay: co-IP; 293FT cells transfected with the plasmids, NP-40 lysis buffer (250 mM KCl); precipitated with anti-E2F4 agarose beads, rabbit IgG beads as control, 1-2 h on ice; western blot

Binder | binding [1] | binding [2] | binding [3]
B1 | binds | binds | –
B2 | – | – | binds
B3 | – | – | binds
